Results are given in words; binding and its absence hold for the method and conditions named. Some entries that bind do so weakly or less than the wild type.

By UniProt entry, the sequences of proteins in these tests, tags left out. Where a name states a change or a piece, a line headed by the entry shows the natural chain unless it says otherwise. Chains listed by the source or under a name are the forms on record and can include a tag or linker. Residues count along the entry.
Shh-Flag (human Shh residues 25-197 with C-terminal Flag-Tag) (Q15465, form named): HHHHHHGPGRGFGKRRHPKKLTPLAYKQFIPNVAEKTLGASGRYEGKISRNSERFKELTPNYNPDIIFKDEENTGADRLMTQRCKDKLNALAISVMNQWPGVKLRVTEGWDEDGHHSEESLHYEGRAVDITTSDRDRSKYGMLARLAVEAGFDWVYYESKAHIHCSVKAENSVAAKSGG

Among the data in patent US20110129457A1 are binding values, retold here.

Assay [1] deals with Shh-Flag (human Shh residues 25-197 with C-terminal Flag-Tag) (human) (UniProt Q15465). Kind of assay: competition ELISA: Shh-Flag captured on anti-Flag M2; Hip-L2 peptide against 800 nM His-tagged Hhip protein (Hhip1β12 in paragraph 608, Hipβ1 in paragraph 609), detected with anti-His-HRP. (In an ELISA, binding on a coated surface is turned into a signal by an enzyme label.)
Assay [2] has the same target. Kind of assay: competition ELISA on Shh-Flag.

Turning to GDGMITLDDMEEMDGLSDFTG [Hip-L2 peptide (…) of the competition ELISA], in assay [1], the binding entry is “binds”.

Take GCQLTKQRLVDADGIINPCG (disulfide-containing cyclic peptide) [Ptch L2 peptide, disulfide-containing cyclic (…)]: the binding result in assay [2] is given as “binds”.
